Results: the supplement of paper PMC12819154, “High-throughput peptide-centric local stability assay extends protein–ligand identification to membrane proteins, tissues and bacteria” (Nature Structural & Molecular Biology, 2025)
The list shows a part of the results. Most entries show no effect beyond the scatter of the controls.

Chains of the proteins cited; added tags and fusions are not shown. Lines headed by an entry give the natural chain unless they say otherwise; changes in a name come on top.
UniProt Q9BUB4: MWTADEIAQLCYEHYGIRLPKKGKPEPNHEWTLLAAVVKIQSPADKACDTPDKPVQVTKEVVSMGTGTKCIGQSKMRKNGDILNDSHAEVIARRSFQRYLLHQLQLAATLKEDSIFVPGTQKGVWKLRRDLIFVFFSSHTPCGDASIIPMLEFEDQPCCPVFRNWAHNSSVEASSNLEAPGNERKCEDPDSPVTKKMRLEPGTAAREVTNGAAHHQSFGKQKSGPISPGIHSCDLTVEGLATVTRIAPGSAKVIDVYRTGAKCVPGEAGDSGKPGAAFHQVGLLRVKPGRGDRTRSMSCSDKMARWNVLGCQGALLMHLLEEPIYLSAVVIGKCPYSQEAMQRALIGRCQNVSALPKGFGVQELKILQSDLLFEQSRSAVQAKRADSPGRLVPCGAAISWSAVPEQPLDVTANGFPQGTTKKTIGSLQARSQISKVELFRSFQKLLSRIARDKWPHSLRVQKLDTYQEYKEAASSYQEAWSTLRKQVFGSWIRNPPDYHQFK
UniProt Q9BU19: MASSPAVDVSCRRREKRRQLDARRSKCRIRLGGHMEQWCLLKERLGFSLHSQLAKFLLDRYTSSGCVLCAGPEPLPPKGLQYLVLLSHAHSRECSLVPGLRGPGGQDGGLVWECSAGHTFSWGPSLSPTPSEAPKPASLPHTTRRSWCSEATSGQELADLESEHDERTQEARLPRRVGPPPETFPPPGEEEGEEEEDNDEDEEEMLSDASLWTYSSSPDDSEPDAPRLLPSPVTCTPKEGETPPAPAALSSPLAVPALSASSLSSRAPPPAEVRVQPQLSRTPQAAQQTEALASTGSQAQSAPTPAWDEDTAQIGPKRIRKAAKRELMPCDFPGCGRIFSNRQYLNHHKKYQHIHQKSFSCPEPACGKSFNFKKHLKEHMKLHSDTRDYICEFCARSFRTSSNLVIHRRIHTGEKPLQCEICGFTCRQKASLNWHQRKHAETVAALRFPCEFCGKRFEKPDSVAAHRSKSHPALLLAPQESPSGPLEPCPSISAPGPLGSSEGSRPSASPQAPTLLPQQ
UniProt Q99848: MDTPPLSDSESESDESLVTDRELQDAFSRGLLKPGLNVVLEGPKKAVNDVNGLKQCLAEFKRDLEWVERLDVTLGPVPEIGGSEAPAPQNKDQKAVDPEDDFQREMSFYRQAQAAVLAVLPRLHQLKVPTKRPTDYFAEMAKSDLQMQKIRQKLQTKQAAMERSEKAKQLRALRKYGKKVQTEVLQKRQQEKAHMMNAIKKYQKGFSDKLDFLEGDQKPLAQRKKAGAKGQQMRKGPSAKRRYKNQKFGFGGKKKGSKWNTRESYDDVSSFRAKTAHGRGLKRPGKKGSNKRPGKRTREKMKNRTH
UniProt Q9BRU9: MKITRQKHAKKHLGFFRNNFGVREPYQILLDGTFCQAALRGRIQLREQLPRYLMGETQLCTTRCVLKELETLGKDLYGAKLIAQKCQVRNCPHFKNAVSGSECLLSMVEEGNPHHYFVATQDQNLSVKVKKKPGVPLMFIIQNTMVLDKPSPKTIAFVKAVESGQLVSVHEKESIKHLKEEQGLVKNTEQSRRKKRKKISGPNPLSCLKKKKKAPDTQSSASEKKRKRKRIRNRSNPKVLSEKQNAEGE
UniProt Q99536: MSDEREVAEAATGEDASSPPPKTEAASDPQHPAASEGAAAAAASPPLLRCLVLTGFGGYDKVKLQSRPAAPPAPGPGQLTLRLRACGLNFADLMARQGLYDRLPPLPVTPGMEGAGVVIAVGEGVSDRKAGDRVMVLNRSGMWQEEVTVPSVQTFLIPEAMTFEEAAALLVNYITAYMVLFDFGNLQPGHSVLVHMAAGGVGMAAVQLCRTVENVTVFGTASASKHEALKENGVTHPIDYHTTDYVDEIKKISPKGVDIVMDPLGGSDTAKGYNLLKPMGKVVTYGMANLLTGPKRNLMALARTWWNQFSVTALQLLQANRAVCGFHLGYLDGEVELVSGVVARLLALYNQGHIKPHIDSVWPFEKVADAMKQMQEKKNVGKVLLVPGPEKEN
UniProt Q99547: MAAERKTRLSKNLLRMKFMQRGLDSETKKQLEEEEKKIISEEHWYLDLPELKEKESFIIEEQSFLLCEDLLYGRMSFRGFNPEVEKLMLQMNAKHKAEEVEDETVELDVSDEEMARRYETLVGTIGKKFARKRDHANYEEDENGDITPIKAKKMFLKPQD
UniProt Q96T51: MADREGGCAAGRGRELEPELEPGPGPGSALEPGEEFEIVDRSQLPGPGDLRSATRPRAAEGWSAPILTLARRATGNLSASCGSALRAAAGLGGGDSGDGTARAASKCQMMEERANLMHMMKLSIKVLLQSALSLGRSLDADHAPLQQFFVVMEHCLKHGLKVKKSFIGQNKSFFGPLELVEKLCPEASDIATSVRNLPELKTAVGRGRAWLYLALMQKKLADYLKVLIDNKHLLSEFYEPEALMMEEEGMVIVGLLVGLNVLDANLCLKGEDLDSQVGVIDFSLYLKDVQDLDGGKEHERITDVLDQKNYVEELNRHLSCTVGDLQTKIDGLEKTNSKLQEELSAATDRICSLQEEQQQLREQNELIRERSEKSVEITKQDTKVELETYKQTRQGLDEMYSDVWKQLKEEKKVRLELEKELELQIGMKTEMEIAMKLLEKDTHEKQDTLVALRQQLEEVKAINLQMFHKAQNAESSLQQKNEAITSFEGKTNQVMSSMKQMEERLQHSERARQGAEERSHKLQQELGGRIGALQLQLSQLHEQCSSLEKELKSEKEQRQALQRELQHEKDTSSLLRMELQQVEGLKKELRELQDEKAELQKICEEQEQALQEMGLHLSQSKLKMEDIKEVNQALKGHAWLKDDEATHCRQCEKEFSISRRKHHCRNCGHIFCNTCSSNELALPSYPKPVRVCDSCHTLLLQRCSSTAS
UniProt Q9BQE3, whole entry: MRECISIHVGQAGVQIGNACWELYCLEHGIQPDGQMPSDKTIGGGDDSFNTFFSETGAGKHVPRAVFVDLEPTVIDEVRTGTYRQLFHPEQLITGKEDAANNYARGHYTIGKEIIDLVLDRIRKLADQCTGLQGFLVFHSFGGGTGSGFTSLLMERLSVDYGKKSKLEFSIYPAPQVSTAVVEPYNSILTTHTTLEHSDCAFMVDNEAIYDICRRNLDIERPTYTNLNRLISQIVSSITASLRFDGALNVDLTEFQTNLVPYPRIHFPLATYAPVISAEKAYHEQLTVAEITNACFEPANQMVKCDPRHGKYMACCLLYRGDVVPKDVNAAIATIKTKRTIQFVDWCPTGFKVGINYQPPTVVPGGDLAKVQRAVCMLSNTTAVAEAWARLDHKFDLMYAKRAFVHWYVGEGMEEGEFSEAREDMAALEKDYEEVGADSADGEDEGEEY
UniProt Q99986: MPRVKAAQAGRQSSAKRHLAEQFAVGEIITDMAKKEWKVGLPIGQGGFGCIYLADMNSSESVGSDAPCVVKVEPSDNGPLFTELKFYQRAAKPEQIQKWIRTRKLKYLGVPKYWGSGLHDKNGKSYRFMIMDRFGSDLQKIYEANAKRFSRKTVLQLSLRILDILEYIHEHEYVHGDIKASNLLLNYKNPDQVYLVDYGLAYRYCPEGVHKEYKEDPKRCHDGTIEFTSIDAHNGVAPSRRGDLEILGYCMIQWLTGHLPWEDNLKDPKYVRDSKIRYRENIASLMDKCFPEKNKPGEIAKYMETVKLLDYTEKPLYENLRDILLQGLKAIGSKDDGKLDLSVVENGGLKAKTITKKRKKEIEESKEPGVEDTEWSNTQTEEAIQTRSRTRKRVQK
UniProt Q99613, whole entry: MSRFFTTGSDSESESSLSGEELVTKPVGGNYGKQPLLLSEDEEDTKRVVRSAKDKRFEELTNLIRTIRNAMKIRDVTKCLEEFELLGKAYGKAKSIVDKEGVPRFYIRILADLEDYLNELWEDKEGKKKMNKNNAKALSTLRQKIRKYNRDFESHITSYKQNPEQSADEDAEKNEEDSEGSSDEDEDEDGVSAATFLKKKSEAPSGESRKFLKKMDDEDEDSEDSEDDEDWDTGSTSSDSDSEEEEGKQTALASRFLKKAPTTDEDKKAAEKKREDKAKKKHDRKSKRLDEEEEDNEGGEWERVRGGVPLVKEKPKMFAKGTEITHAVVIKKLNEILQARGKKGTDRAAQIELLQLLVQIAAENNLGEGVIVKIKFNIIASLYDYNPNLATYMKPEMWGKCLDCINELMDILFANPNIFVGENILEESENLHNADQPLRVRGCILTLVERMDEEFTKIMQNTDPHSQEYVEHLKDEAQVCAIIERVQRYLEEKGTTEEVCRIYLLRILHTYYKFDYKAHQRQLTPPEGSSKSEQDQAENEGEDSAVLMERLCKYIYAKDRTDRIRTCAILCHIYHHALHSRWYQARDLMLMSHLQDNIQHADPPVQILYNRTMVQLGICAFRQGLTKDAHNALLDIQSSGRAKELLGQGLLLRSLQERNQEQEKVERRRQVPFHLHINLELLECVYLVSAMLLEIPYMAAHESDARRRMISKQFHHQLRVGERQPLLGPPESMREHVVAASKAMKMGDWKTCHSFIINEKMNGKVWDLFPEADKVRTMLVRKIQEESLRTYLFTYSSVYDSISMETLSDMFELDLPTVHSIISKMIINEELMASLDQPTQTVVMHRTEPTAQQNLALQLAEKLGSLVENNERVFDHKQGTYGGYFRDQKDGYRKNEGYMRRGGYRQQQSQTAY
UniProt Q9BRJ6: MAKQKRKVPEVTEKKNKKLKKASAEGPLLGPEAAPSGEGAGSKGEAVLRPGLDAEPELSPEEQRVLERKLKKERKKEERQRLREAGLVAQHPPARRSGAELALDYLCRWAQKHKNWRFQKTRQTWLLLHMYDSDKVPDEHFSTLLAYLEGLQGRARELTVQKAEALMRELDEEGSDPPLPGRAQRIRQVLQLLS
UniProt Q99865, whole entry: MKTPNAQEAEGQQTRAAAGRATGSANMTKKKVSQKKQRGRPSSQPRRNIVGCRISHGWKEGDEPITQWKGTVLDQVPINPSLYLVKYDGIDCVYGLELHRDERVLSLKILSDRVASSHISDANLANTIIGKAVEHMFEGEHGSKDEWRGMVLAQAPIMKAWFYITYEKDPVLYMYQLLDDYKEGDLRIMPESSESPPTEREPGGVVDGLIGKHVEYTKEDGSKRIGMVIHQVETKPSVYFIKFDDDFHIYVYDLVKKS
UniProt Q99576: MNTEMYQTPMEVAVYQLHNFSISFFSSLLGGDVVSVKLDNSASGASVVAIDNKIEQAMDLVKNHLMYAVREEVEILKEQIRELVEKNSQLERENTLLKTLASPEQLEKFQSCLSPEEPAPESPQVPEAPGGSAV
UniProt Q9BT23: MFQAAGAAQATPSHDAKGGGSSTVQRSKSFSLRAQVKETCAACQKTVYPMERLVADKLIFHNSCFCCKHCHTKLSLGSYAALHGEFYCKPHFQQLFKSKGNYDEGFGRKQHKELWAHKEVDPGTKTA
UniProt Q9BSK4: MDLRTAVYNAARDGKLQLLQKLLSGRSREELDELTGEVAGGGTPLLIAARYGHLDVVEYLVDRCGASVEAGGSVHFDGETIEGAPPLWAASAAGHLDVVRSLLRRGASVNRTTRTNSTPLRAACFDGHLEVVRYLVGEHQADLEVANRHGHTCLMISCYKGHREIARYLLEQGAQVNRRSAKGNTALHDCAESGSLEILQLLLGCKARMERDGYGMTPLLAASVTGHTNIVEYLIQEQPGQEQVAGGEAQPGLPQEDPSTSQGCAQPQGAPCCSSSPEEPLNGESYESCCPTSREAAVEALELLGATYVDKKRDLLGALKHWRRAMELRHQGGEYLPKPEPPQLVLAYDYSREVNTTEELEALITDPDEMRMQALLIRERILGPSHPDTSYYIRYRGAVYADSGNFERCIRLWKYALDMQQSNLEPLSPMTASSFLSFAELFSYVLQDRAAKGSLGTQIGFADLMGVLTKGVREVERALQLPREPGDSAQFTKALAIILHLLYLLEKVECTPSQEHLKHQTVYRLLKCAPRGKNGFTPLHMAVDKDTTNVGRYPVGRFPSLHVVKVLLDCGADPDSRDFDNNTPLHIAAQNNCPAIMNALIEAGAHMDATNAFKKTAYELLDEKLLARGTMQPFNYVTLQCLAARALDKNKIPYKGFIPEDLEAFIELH
UniProt Q9BSG1: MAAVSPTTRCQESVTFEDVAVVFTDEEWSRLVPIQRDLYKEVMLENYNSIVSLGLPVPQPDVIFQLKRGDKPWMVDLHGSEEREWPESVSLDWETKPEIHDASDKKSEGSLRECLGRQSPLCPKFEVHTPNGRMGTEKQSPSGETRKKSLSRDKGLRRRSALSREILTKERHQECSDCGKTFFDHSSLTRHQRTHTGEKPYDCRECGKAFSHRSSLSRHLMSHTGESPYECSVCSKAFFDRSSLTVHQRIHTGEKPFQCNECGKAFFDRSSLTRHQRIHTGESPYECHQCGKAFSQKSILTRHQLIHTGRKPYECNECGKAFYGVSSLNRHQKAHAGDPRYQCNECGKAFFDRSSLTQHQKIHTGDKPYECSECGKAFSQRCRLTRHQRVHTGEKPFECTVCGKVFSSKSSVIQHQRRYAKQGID
UniProt Q9BRT6: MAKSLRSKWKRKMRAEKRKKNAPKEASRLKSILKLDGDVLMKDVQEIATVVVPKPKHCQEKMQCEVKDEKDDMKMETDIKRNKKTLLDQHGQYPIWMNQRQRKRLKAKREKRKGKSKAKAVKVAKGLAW

The targets below were run with Cc1nc(Nc2ncc(C(=O)Nc3c(C)cccc3Cl)s2)cc(N2CCN(CCO)CC2)n1 [dasatinib] (assay: log2 fold change of tryptic peptide abundance, ligand vs vehicle (limited proteolysis) (log2 ratio); higher = more trypsin-susceptible (destabilized)). Conditions: ligand concentration: 5 uM; sample: K562 cleared lysate.

Row | Target | log2 fold change
1 | ADAT1 (peptide sequence: NPPDYHQFK, peptide start residue: 494) (UniProt Q9BUB4) | -0.269
2 | ZNF692 (peptide sequence: LGGHMEQWCLLK, peptide start residue: 31) (UniProt Q9BU19) | -0.699
3 | EBNA1BP2 (peptide sequence: QCLAEFKR, peptide start residue: 55) (UniProt Q99848) | -0.149
4 | DIDO1 (peptide sequence: SIMFNLKDPK, peptide start residue: 727) (UniProt Q9BTC0) | -0.232
5 | UTP23 (peptide sequence: ISGPNPLSCLK, peptide start residue: 199) (UniProt Q9BRU9) | 0.199
6 | CDK5RAP1 (peptide sequence: LKDDVPEEVK, peptide start residue: 486) (UniProt Q96SZ6) | 0.438
7 | DPH2 (peptide sequence: VVGLLAGTLGVAQHR, peptide start residue: 283) (UniProt Q9BQC3) | -0.127
8 | VAT1 (peptide sequence: CLVLTGFGGYDKVK, peptide start residue: 50) (UniProt Q99536) | -0.176
9 | MPHOSPH6 (peptide sequence: GLDSETKK, peptide start residue: 22) (UniProt Q99547) | -0.108
10 | RUFY1 (peptide sequence: ELELQIGMK, peptide start residue: 420) (UniProt Q96T51) | 0.191
11 | TUBA1C (peptide sequence: AVCMLSNTTAVAEAWAR, peptide start residue: 374) (UniProt Q9BQE3) | -0.056
12 | HSD17B10 (peptide sequence: FGRVDVAVNCAGIAVASK, peptide start residue: 82) (UniProt Q99714) | 0.225
13 | TESK2 (peptide sequence: ASGQVMALK, peptide start residue: 79) (UniProt Q96S53) | -0.636
14 | VRK1 (peptide sequence: LLDYTEKPLYENLR, peptide start residue: 308) (UniProt Q99986) | -0.15
15 | AIFM2 (peptide sequence: VNEHLQVEGHSNVYAIGDCADVR, peptide start residue: 268) (UniProt Q9BRQ8) | -0.174
16 | EIF3C (peptide sequence: QPLLGPPESMREHVVAASK, peptide start residue: 724) (UniProt Q99613) | 0.258
17 | C7orf50 (peptide sequence: ELTVQKAEALMR, peptide start residue: 157) (UniProt Q9BRJ6) | -0.279
18 | NAA11 (peptide sequence: YYADGEDAYAMKR, peptide start residue: 137) (UniProt Q9BSU3) | 0.102
19 | SERPINI1 (peptide sequence: HSMGYDSLK, peptide start residue: 74) (UniProt Q99574) | 0.286

Row | Target | log2 fold change
20 | CLCC1 (peptide sequence: HIGGPESEPPQALRPR, peptide start residue: 362) (UniProt Q96S66) | 0.418
21 | TCF25 (peptide sequence: LSPISHGNTIALFFR, peptide start residue: 601) (UniProt Q9BQ70) | -0.35
22 | UniProt Q99865 (peptide sequence: RNIVGCR, peptide start residue: 51) | 0.432
23 | TSC22D3 (peptide sequence: EEVEILKEQIR, peptide start residue: 71) (UniProt Q99576) | -0.00394
24 | LIMD2 (peptide sequence: GNYDEGFGR, peptide start residue: 100) (UniProt Q9BT23) | 0.161
25 | DCUN1D5 (peptide sequence: SMLALLLGR, peptide start residue: 164) (UniProt Q9BTE7) | -0.379
26 | ELAC2 (peptide sequence: LDNIFLTR, peptide start residue: 105) (UniProt Q9BQ52) | -0.201
27 | UniProt Q9BTY7 (peptide sequence: APLHYLAPLLSNLSQRPAAR, peptide start residue: 171) | -0.163
28 | MACROD1 (peptide sequence: AAGPLLTDECR, peptide start residue: 190) (UniProt Q9BQ69) | -0.103
29 | SRPK1 (peptide sequence: IIHTDIKPENILLSVNEQYIR, peptide start residue: 209) (UniProt Q96SB4) | 0.185
30 | APBA2 (peptide sequence: SASQDCIETTPGAQEGKK, peptide start residue: 478) (UniProt Q99767) | 0.795
31 | FEM1A (peptide sequence: VLLDCGADPDSR, peptide start residue: 566) (UniProt Q9BSK4) | 0.737
32 | WAC (peptide sequence: TEVSQWEKPK, peptide start residue: 152) (UniProt Q9BTA9) | 0.678
33 | UniProt Q9BSG1 (peptide sequence: ERHQECSDCGK, peptide start residue: 170) | -0.145
34 | HNRNPUL1 (peptide sequence: SGGGGYSQNR, peptide start residue: 662) (UniProt Q9BUJ2) | 0.129
35 | NUDT16L1 (peptide sequence: VLNMMPEEK, peptide start residue: 179) (UniProt Q9BRJ7) | -0.404
36 | LLPH (peptide sequence: TLLDQHGQYPIWMNQR, peptide start residue: 85) (UniProt Q9BRT6) | 0.0466
37 | RIOK1 (peptide sequence: TSILVFKDRDK, peptide start residue: 212) (UniProt Q9BRS2) | -0.552
38 | UniProt Q9BSH4 (peptide sequence: FICDASSLHQVRK, peptide start residue: 232) | 0.299

A different layout for part of the listing above.

| Row | Target | log2 fold change |
| --- | --- | --- |
| 29 | SRPK1 (peptide sequence: IIHTDIKPENILLSVNEQYIR, peptide start residue: 209) (UniProt Q96SB4) | 0.185 |
| 30 | APBA2 (peptide sequence: SASQDCIETTPGAQEGKK, peptide start residue: 478) (UniProt Q99767) | 0.795 |
